Test system: SARS-CoV-2
Assay: In vitro antiviral immunostaining assay in Vero E6 cells
Conditions: Vero E 6 cells

CCC(CC)COC(=O)[C@H](C)N[P@](=O)(OC[C@H]1O[C@@](C#N)(c2ccc3c(N)ncnn23)[C@H](O)[C@@H]1O)Oc1ccccc1 [Remdesivir]
EC50: 1150 nM

Reference: patent publication US20250268967A1, “NUTRACEUTICAL COMPOUNDS USEFUL IN THE TREATMENT OF CORONAVIRUS DISEASE” (priority 2020, published 2025)
